Paper PMC5323130 (Oncotarget, 2016)
Strings that start with PEPTIDE1 are HELM notation: dots part the residues, brackets hold end groups and non-standard residues.

Assay: general procedure: Fmoc solid-phase peptide synthesis
Conditions: whole synthesis, HPLC

Substance | purity (crude or final not stated) [%]
PEPTIDE1{G.N.A.D.Y.N.S.Q.R.A.Q.L.Y.N.Q}$$$$V2.0 | 97.56
PEPTIDE1{G.I.D.Y.E.E.R.W.K}$$$$V2.0 | 95.14
PEPTIDE1{L.D.Y.G.D.K.R.E.G.Q.M.A.E}$$$$V2.0 | 98.81
PEPTIDE1{G.N.W.D.Y.N.S.Q.R.A.Q.L.Y.N.Q}$$$$V2.0 | 98.24
PEPTIDE1{A.D.Y.K}$$$$V2.0 | 95.17
PEPTIDE1{F.N.W.D.Y.S.W.K.S.E.R.L.K.E.A.Y.D.L}$$$$V2.0 | 96.66
PEPTIDE1{G.N.W.D.Y.N.S.Q.A.A.Q.L.Y.N.Q}$$$$V2.0 | 96.65
PEPTIDE1{G.N.W.D.A.N.S.Q.R.A.Q.L.Y.N.Q}$$$$V2.0 | 96.76
PEPTIDE1{W.D.Y.D}$$$$V2.0 | 98.40
PEPTIDE1{L.D.Y.V.N.R.R.K.M.Y.Q}$$$$V2.0 | 96.08
PEPTIDE1{L.D.Y.D.G.R.L.S.Q}$$$$V2.0 | 96.46
PEPTIDE1{G.N.W.A.Y.N.S.Q.R.A.Q.L.Y.N.Q}$$$$V2.0 | 95.18
PEPTIDE1{T.E.K.D.Y.R.H.G.N.I.R.M.K.L.A.Y.D.L}$$$$V2.0 | 96.71
PEPTIDE1{F.N.W.D.Y.S.L.E.E.L.R.E.K.A.K.Y.K}$$$$V2.0 | 95.80
